This is one part of the list.
How the values were obtained:
Assay in all cases: glycan array binding signal (z-score within array); higher = stronger binding
Settings in all cases: glycan notation: IUPAC condensed, linker removed
[1] = target: Gal(a1-3)Gal(b1-4)GlcNAc(b1-2)Man
Outline: (§1)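 Arrays were curated from the Consortium for Functional Glycomics database, 3228 in total, and kept only where the protein sequence was available. Binding is expressed as a within-array Z-score. This score was averaged across arrays of the same protein sequence at different concentrations or buffers and across linkers, and negative values can be read as non-binding.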

[2] = target: Gal(a1-3)Gal(b1-4)GlcNAc(b1-2)Man(a1-3)[Gal(a1-3)Gal(b1-4)GlcNAc(b1-2)Man(a1-6)]Man(b1-4)GlcNAc(b1-4)GlcNAc
Outline: as §1

[3] = target: Gal(a1-3)Gal(b1-4)GlcNAc(b1-3)GalNAc
Outline: as §1

[4] = target: Gal(a1-3)Gal(b1-4)GlcNAc(b1-6)GalNAc
Outline: as §1

[5] = target: Gal(a1-3)Gal(b1-4)[Fuc(a1-3)]GlcNAc
Outline: as §1

[6] = target: Gal(a1-3)Gal(b1-4)[Fuc(a1-3)]GlcNAc(b1-2)Man(a1-3)[Gal(a1-3)Gal(b1-4)[Fuc(a1-3)]GlcNAc(b1-2)Man(a1-6)]Man(b1-4)GlcNAc(b1-4)GlcNAc
Outline: as §1

Gal(a1-3)GalNAc = target: Gal(a1-3)GalNAc
Outline: as §1

[7] = target: Gal(a1-3)[Gal(a1-4)]Gal(b1-4)GlcNAc
Outline: as §1

[8] = target: Gal(a1-4)Gal(b1-3)GlcNAc(b1-2)Man(a1-3)[Gal(a1-4)Gal(b1-3)GlcNAc(b1-2)Man(a1-6)]Man(b1-4)GlcNAc(b1-4)GlcNAc
Outline: as §1

Gal(a1-4)Gal(b1-4)Glc = target: Gal(a1-4)Gal(b1-4)Glc
Outline: as §1

Gal(a1-4)Gal(b1-4)GlcNAc = target: Gal(a1-4)Gal(b1-4)GlcNAc
Outline: as §1

[9] = target: Gal(a1-4)Gal(b1-4)GlcNAc(b1-2)Man(a1-3)[Gal(a1-4)Gal(b1-4)GlcNAc(b1-2)Man(a1-6)]Man(b1-4)GlcNAc(b1-4)GlcNAc
Outline: as §1

[10] = target: Gal(a1-4)Gal(b1-4)GlcNAc(b1-3)Gal(b1-4)Glc
Outline: as §1

Gal(a1-4)GlcNAc = target: Gal(a1-4)GlcNAc
Outline: as §1

Gal(a1-6)Glc = target: Gal(a1-6)Glc
Outline: as §1

Gal(b1-2)Gal = target: Gal(b1-2)Gal
Outline: as §1

Gal(b1-3)Gal = target: Gal(b1-3)Gal
Outline: as §1

Gal(b1-3)Gal(b1-4)GlcNAc = target: Gal(b1-3)Gal(b1-4)GlcNAc
Outline: as §1

Gal(b1-3)GalNAc = target: Gal(b1-3)GalNAc
Outline: as §1

[11] = target: Gal(b1-3)GalNAc(a1-3)[Fuc(a1-2)]Gal(b1-4)Glc
Outline: as §1

[12] = target: Gal(b1-3)GalNAc(a1-3)[Fuc(a1-2)]Gal(b1-4)GlcNAc
Outline: as §1

Gal(b1-3)GalNAc(b1-3)Gal = target: Gal(b1-3)GalNAc(b1-3)Gal
Outline: as §1

[13] = target: Gal(b1-3)GalNAc(b1-3)Gal(a1-4)Gal(b1-4)Glc
Outline: as §1

[14] = target: Gal(b1-3)GalNAc(b1-4)Gal(b1-4)Glc
Outline: as §1

[15] = target: Gal(b1-3)GalNAc(b1-4)[Neu5Ac(a2-3)]Gal(b1-4)Glc
Outline: as §1

Gal(b1-3)GlcNAc = target: Gal(b1-3)GlcNAc
Outline: as §1

[16] = target: Gal(b1-3)GlcNAc(a1-3)Gal(b1-4)GlcNAc
Outline: as §1

[17] = target: Gal(b1-3)GlcNAc(a1-6)Gal(b1-4)GlcNAc
Outline: as §1

Gal(b1-3)GlcNAc(b1-2)Man = target: Gal(b1-3)GlcNAc(b1-2)Man
Outline: as §1

[18] = target: Gal(b1-3)GlcNAc(b1-2)Man(a1-3)[Gal(b1-3)GlcNAc(b1-2)Man(a1-6)]Man(b1-4)GlcNAc(b1-4)GlcNAc
Outline: as §1

B1: GS7807I-bvu-563-22-563 (Bacteroides vulgatus) (protein)
chain: IFSSCTDDFEKLNTSNIQVDPADLPFAAQCTEPMTYCYPPQQNMFQFWTNLTIDLYGGYFMTPNGNFTNGDMGENRGHSGGMYENYYLHIFNNTRRIIAQCDASGERGLSGVMRIVQAYGTLMTTDAYGPIPYSSILSGENEVYFEFDSQKDLYKAMLEDLSTAITDISAMGADEIAKLKSFDCWCNGDKDLWVKIANTMKLRMALRLSKRETEAGNAGMNLKAIATEAAQNTLATVNKDILIDKSLENEMWLMFNWGDCGFNANLVTIMSGTKDPRQPLYMTLNTGDIKNEAGTTTVAANSQYLGIRFASGLPAKPNSWGNFSGWIQGNNGSSYSMPLPIMKAAEAYFLLAEAKLRWDIGSESVKNLYENGIRVSMTNELAYRGAYAGIKEYPEGAVDAYINGTSTQIDYTDPIKAELSTPAVNKLSVKWDESASNEEKLERIITQKWLALFPLSTEGWAEQRRTGYPRFFPAFVNESNGAVNTEEGVRRVIYSSQAYDANAKGVEGGIKLLDEENSSKFGISGDKGGTHLWWDNADKGNF
- glycan array binding signal (z-score) [1]: -0.044
- glycan array binding signal (z-score) [2]: 1.78
- glycan array binding signal (z-score) [3]: -1.06
- glycan array binding signal (z-score) [4]: 0.309
- glycan array binding signal (z-score) [5]: -0.865
- glycan array binding signal (z-score) [6]: 3.63
- glycan array binding signal (z-score) (Gal(a1-3)GalNAc): -0.028
- glycan array binding signal (z-score) [7]: 0.09
- glycan array binding signal (z-score) [8]: -0.056
- glycan array binding signal (z-score) (Gal(a1-4)Gal(b1-4)Glc): -0.678
- glycan array binding signal (z-score) (Gal(a1-4)Gal(b1-4)GlcNAc): 0.073
- glycan array binding signal (z-score) [9]: 2.76
- glycan array binding signal (z-score) [10]: 0.141
- glycan array binding signal (z-score) (Gal(a1-4)GlcNAc): -1.2
- glycan array binding signal (z-score) (Gal(a1-6)Glc): -0.496
- glycan array binding signal (z-score) (Gal(b1-2)Gal): 1.6
- glycan array binding signal (z-score) (Gal(b1-3)Gal): -0.329
- glycan array binding signal (z-score) (Gal(b1-3)Gal(b1-4)GlcNAc): 0.261
- glycan array binding signal (z-score) (Gal(b1-3)GalNAc): -0.504
- glycan array binding signal (z-score) [11]: 0.951
- glycan array binding signal (z-score) [12]: -1.29
- glycan array binding signal (z-score) (Gal(b1-3)GalNAc(b1-3)Gal): -0.996
- glycan array binding signal (z-score) [13]: 0.56
- glycan array binding signal (z-score) [14]: 0.069
- glycan array binding signal (z-score) [15]: 0.792
- glycan array binding signal (z-score) (Gal(b1-3)GlcNAc): -0.376
- glycan array binding signal (z-score) [16]: 0.158
- glycan array binding signal (z-score) [17]: 1.74
- glycan array binding signal (z-score) (Gal(b1-3)GlcNAc(b1-2)Man): -0.141
- glycan array binding signal (z-score) [18]: 0.515

Source: the supplement of paper PMC8728848
